Patent US20130095122A1, “Peptides or Antibodies Which Bind to Melanoma Inhibitory Activity (MIA) Protein” (priority 2010, published 2013)
No constants are given. Whether binding was seen depends on the method and setting. Some entries that bind do so weakly or less than the wild type. Where a sequence is shown, tags or fusion partners need not be part of it.

Target: T1, melanoma inhibitory activity (MIA) protein, recombinant human wild type (human) (UniProt Q16674)
T1 sequence: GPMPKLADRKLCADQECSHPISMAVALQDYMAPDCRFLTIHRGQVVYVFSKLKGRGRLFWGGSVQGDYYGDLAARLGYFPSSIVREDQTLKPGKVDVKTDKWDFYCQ
Assay: HTFP competition assay

binding: binds
Binder: FHWRYPLPLPGQ (peptide, not shown: small tags and cut ends) [AR71-HisTag peptide]
